Experimental data reported in the supplement of paper PMC6411743.
± gives the standard deviation of the averaged measurements. The entries are a selection whose mix differs from that of the whole data set. Small differences around the control level are noise.

Amino acid sequences for entries named in this document (tags omitted). A change or cut given only in a name is not applied to a line headed by its entry.
UniProt Q96E14: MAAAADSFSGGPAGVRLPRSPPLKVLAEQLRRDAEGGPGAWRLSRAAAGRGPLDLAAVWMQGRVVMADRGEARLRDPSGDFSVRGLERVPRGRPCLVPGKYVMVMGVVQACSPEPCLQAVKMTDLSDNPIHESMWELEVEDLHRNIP
UniProt Q96PK6: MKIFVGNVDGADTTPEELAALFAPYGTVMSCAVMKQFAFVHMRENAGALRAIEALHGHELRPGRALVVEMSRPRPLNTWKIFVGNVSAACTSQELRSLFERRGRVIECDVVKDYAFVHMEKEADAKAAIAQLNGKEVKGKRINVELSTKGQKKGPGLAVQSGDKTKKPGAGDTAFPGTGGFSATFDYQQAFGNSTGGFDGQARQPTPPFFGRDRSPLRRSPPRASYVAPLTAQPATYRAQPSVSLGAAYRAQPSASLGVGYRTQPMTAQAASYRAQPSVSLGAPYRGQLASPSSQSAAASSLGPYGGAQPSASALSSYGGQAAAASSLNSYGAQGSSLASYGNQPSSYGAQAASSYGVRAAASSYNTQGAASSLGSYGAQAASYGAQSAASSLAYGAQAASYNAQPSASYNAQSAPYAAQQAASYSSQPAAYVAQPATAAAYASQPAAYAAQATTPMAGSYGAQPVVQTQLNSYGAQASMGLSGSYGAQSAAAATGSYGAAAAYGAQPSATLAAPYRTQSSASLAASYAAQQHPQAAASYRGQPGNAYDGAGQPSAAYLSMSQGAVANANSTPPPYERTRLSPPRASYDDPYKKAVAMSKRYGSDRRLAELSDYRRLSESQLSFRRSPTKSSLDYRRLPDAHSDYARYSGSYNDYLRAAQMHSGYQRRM
UniProt Q96BS2: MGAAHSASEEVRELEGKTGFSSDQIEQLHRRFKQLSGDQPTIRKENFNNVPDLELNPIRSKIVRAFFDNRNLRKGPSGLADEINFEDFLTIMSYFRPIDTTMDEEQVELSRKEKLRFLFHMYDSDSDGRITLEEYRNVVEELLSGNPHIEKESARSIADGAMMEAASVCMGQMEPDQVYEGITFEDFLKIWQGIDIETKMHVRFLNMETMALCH
UniProt Q96CB9: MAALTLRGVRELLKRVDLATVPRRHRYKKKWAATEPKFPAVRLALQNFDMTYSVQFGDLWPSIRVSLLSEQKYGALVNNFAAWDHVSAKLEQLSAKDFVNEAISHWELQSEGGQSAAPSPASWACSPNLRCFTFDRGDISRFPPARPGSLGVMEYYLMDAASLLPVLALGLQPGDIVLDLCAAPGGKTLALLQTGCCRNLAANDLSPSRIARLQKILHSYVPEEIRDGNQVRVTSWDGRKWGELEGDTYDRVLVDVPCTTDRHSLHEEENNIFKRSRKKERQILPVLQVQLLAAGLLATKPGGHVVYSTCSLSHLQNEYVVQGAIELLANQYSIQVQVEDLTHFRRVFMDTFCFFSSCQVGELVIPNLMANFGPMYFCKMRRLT
UniProt Q96EB1: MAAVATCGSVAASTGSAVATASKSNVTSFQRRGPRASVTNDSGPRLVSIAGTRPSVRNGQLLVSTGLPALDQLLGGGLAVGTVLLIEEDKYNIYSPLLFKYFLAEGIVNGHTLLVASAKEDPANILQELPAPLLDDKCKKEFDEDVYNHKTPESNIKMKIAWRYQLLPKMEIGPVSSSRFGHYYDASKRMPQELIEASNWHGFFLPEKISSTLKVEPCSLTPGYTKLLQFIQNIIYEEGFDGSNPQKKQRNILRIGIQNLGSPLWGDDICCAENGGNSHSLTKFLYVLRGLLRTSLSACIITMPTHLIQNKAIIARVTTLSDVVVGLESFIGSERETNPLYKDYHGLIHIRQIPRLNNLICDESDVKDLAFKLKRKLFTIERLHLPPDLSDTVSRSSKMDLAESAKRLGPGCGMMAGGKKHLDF
UniProt Q96AE4: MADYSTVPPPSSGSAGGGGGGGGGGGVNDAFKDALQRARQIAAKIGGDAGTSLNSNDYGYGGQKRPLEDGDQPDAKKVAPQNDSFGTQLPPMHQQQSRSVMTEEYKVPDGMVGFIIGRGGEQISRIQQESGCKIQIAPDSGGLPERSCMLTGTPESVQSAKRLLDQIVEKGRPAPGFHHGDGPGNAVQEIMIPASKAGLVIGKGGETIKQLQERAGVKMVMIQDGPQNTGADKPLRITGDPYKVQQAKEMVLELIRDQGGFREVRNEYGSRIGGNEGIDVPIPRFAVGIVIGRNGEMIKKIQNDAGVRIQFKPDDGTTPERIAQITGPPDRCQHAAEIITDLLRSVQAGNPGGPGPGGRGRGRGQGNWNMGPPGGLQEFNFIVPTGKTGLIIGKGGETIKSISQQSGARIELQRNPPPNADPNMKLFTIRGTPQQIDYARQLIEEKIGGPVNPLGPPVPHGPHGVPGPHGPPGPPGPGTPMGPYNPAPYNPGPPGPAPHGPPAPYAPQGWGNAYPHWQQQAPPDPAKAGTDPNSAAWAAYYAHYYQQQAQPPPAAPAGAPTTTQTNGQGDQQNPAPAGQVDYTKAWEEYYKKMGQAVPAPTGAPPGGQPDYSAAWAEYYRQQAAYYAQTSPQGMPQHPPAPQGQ
UniProt Q969R2: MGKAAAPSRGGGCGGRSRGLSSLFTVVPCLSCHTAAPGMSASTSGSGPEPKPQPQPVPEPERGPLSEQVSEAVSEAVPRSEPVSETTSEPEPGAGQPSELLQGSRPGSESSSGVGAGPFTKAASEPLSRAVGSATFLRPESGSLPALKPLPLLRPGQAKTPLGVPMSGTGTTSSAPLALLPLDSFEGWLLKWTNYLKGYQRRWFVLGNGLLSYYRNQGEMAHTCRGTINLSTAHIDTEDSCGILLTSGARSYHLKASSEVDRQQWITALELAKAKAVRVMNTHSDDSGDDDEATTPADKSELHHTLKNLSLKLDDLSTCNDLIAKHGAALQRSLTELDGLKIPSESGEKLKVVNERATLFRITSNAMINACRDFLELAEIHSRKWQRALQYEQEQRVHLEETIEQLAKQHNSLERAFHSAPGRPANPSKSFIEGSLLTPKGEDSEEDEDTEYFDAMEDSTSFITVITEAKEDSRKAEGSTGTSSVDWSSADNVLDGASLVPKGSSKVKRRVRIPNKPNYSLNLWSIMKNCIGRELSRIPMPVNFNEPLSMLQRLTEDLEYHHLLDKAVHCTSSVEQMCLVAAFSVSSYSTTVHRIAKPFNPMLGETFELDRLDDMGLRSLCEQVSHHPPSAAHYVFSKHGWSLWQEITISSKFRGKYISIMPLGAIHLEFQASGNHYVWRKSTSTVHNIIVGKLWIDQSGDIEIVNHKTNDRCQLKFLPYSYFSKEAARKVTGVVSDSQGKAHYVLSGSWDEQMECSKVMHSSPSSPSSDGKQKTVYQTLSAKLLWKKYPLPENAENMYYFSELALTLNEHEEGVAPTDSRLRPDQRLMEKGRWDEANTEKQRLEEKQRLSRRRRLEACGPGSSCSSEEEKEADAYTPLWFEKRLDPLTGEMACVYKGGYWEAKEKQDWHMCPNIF
UniProt Q969H8: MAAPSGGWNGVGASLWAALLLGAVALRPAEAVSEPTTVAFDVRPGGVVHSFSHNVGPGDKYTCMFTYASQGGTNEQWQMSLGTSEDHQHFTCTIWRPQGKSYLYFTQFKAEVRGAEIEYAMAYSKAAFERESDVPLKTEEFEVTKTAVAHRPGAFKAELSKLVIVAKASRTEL
UniProt Q96AT1: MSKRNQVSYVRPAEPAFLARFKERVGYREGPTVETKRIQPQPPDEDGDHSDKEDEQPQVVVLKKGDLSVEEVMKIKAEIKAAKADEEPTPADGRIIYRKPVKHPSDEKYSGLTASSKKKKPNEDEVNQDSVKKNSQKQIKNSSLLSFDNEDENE
UniProt Q96E52: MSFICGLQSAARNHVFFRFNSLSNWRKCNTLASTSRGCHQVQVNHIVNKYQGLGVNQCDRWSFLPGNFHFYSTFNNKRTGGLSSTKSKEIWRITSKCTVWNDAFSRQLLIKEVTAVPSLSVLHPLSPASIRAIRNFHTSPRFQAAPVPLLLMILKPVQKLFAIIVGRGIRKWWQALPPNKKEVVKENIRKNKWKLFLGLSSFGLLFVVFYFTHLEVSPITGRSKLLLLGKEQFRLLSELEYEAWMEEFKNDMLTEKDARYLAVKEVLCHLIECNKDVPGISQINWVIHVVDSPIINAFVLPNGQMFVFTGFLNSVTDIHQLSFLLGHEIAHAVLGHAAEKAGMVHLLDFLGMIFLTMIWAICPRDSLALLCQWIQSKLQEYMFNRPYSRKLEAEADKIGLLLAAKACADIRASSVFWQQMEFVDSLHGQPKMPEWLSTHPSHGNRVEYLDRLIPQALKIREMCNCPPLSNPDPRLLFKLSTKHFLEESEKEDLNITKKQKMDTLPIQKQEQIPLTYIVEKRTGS
UniProt Q96EM0: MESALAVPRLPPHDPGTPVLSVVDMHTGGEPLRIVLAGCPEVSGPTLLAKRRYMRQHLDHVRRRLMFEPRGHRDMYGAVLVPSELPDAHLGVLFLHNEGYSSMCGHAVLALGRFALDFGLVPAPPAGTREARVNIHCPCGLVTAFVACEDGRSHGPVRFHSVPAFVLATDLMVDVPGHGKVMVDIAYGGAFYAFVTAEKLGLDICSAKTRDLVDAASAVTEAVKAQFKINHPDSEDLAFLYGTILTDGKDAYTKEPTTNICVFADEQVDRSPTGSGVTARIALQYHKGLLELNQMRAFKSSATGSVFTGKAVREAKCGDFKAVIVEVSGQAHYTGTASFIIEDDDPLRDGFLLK
UniProt Q96BH1: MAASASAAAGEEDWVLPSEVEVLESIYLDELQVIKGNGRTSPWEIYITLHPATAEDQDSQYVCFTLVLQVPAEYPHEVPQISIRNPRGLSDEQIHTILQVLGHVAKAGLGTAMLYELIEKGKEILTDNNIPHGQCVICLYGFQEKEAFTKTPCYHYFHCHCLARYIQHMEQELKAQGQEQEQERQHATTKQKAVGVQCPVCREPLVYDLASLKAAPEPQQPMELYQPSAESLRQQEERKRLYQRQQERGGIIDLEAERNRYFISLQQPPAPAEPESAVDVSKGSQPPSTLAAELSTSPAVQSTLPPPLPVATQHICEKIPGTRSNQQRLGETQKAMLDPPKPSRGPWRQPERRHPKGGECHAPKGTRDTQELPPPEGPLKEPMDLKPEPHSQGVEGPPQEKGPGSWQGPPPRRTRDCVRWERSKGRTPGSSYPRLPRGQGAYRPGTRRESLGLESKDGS
UniProt Q96EK5: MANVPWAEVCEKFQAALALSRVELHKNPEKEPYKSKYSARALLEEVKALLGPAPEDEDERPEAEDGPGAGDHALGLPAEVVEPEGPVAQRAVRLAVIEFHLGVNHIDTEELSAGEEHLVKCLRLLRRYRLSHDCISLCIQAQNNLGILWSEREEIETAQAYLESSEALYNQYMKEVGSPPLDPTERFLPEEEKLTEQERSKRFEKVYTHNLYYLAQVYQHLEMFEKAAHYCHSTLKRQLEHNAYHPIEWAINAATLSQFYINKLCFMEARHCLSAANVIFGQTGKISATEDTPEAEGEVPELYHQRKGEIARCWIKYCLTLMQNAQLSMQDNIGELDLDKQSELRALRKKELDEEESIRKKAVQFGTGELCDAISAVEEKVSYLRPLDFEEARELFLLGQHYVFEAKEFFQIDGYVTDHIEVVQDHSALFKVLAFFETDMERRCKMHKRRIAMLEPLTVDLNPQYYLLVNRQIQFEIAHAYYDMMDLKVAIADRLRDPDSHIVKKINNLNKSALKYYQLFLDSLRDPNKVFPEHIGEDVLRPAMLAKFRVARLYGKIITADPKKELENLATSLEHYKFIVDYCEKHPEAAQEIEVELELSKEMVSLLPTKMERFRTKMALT
UniProt Q96D05: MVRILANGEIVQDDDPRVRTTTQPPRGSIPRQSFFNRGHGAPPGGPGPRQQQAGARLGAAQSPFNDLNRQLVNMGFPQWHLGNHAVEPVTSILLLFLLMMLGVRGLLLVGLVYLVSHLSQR
UniProt Q96G25: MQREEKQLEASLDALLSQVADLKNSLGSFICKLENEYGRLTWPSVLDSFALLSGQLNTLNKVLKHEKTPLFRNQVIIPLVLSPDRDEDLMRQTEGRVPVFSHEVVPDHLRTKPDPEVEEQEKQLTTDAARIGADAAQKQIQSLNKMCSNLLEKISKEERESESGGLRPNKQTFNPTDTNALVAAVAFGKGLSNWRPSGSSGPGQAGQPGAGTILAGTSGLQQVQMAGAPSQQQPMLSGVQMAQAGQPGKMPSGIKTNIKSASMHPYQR
UniProt Q96GM5, whole entry: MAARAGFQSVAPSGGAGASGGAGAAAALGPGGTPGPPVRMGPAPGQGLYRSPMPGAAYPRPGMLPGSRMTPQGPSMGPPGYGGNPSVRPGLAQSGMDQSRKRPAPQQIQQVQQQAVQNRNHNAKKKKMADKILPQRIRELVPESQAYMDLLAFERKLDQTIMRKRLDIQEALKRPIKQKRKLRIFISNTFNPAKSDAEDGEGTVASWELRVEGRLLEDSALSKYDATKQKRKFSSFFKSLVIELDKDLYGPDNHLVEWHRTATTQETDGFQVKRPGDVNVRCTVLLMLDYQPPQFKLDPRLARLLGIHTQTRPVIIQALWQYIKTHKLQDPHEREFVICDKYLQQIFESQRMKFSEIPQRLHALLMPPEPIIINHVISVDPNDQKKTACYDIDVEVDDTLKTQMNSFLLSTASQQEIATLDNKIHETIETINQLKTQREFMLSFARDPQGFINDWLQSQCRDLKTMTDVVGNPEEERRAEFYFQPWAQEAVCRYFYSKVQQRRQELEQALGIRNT

Compound: Nc1ncnc2c1ncn2[C@@H]1O[C@H](COP(=O)(O)OP(=O)(O)NP(=O)(O)O)[C@@H](O)[C@H]1O [adenylyl imidodiphosphate]
Test: NP40-soluble protein abundance relative to vehicle (solubility fold change) (ratio); higher = more soluble protein in presence of AMP-PNP
Method in brief: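 Data come from three independent experiments in which Dounce-homogenised Jurkat crude lysate was treated at eight concentrations from 0.1 to 10 mM. Treatment ran 10 min at room temperature and then 3 min at 37 °C, after which 0.8% NP40 and benzonase were added for 60 min at 4 °C before ultracentrifugation. The supernatant underwent TMT labelling and LC-MS/MS, and vsn-normalised intensities were expressed as fold change against the detergent-processed vehicle in each replicate.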

RMI2 (UniProt Q96E14)
NP40-soluble protein abundance (concentration: 0.1mM): 0.99184 ± 0.00078
NP40-soluble protein abundance (concentration: 0.5mM): 1.03 ± 0.063

RBM14 (UniProt Q96PK6)
NP40-soluble protein abundance (concentration: 0.1mM): 1 ± 0.043
NP40-soluble protein abundance (concentration: 0.5mM): 1.03 ± 0.021

ZKSCAN4 (UniProt Q969J2)
NP40-soluble protein abundance (concentration: 0.1mM): 0.981 ± 0.012
NP40-soluble protein abundance (concentration: 0.5mM): 0.98322 ± 0.00045

PGM2 (UniProt Q96G03)
NP40-soluble protein abundance (concentration: 0.1mM): 1.02 ± 0.025
NP40-soluble protein abundance (concentration: 0.5mM): 0.991 ± 0.081

UniProt Q96JJ7
NP40-soluble protein abundance (concentration: 0.1mM): 1.01 ± 0.021
NP40-soluble protein abundance (concentration: 0.5mM): 0.995 ± 0.014

UniProt Q96DZ1
NP40-soluble protein abundance (concentration: 0.1mM): 0.9585 ± 0.0014
NP40-soluble protein abundance (concentration: 0.5mM): 0.97 ± 0.026

NRBF2 (UniProt Q96F24)
NP40-soluble protein abundance (concentration: 0.1mM): 0.993 ± 0.031
NP40-soluble protein abundance (concentration: 0.5mM): 0.995 ± 0.078

PDLIM5 (UniProt Q96HC4)
NP40-soluble protein abundance (concentration: 0.1mM): 0.977 ± 0.015
NP40-soluble protein abundance (concentration: 0.5mM): 1.008 ± 0.0021

RAB39B (UniProt Q96DA2)
NP40-soluble protein abundance (concentration: 0.1mM): 0.987 ± 0.025
NP40-soluble protein abundance (concentration: 0.5mM): 1 ± 0.039

TESC (UniProt Q96BS2)
NP40-soluble protein abundance (concentration: 0.1mM): 0.974 ± 0.029
NP40-soluble protein abundance (concentration: 0.5mM): 0.953 ± 0.045

UniProt Q96D96 and related entries
NP40-soluble protein abundance (concentration: 0.1mM): 1 ± 0.04
NP40-soluble protein abundance (concentration: 0.5mM): 1.03 ± 0.076

UniProt Q96Q11 and related entries
NP40-soluble protein abundance (concentration: 0.1mM): 1.01 ± 0.065
NP40-soluble protein abundance (concentration: 0.5mM): 1.04 ± 0.079

UniProt Q96GC5 and related entries
NP40-soluble protein abundance (concentration: 0.1mM): 1.01 ± 0.035
NP40-soluble protein abundance (concentration: 0.5mM): 1.05 ± 0.059

UniProt Q96PY6 and related entries
NP40-soluble protein abundance (concentration: 0.1mM): 0.9895 ± 0.0083
NP40-soluble protein abundance (concentration: 0.5mM): 0.994 ± 0.026

NSUN4 (UniProt Q96CB9)
NP40-soluble protein abundance (concentration: 0.1mM): 1.03 ± 0.058
NP40-soluble protein abundance (concentration: 0.5mM): 0.984 ± 0.048

UniProt Q92973 and related entries
NP40-soluble protein abundance (concentration: 0.1mM): 1.06 ± 0.013
NP40-soluble protein abundance (concentration: 0.5mM): 0.99 ± 0.023

ELP4 (UniProt Q96EB1)
NP40-soluble protein abundance (concentration: 0.1mM): 1.03 ± 0.026
NP40-soluble protein abundance (concentration: 0.5mM): 0.982 ± 0.044

UniProt Q96AE4 and related entries
NP40-soluble protein abundance (concentration: 0.1mM): 0.981 ± 0.01
NP40-soluble protein abundance (concentration: 0.5mM): 0.986 ± 0.033

UniProt Q96B97 and related entries
NP40-soluble protein abundance (concentration: 0.1mM): 0.997 ± 0.038
NP40-soluble protein abundance (concentration: 0.5mM): 1.02 ± 0.053

UniProt Q96JP5 and related entries
NP40-soluble protein abundance (concentration: 0.1mM): 0.999 ± 0.026
NP40-soluble protein abundance (concentration: 0.5mM): 1.05 ± 0.079

MRPL53 (UniProt Q96EL3)
NP40-soluble protein abundance (concentration: 0.1mM): 1.03 ± 0.023
NP40-soluble protein abundance (concentration: 0.5mM): 1.03 ± 0.038

ZBTB10 (UniProt Q96DT7)
NP40-soluble protein abundance (concentration: 0.1mM): 1.02 ± 0.017
NP40-soluble protein abundance (concentration: 0.5mM): 0.992 ± 0.039

DDRGK1 (UniProt Q96HY6)
NP40-soluble protein abundance (concentration: 0.1mM): 1.03 ± 0.054
NP40-soluble protein abundance (concentration: 0.5mM): 0.997 ± 0.091

UniProt Q96HI0 and related entries
NP40-soluble protein abundance (concentration: 0.1mM): 1 ± 0.019
NP40-soluble protein abundance (concentration: 0.5mM): 0.965 ± 0.034

CCDC51 (UniProt Q96ER9)
NP40-soluble protein abundance (concentration: 0.1mM): 0.981 ± 0.041
NP40-soluble protein abundance (concentration: 0.5mM): 1.02 ± 0.043

PCMTD1 (UniProt Q96MG8)
NP40-soluble protein abundance (concentration: 0.1mM): 0.996 ± 0.056
NP40-soluble protein abundance (concentration: 0.5mM): 1.01 ± 0.03

PNPLA2 (UniProt Q96AD5)
NP40-soluble protein abundance (concentration: 0.1mM): 1.02 ± 0.015
NP40-soluble protein abundance (concentration: 0.5mM): 1 ± 0.033

UniProt Q969R2 and related entries
NP40-soluble protein abundance (concentration: 0.1mM): 1 ± 0.059
NP40-soluble protein abundance (concentration: 0.5mM): 0.9793 ± 0.0078

UniProt Q969H8
NP40-soluble protein abundance (concentration: 0.1mM): 0.993 ± 0.044
NP40-soluble protein abundance (concentration: 0.5mM): 1.02 ± 0.065

KIAA1143 (UniProt Q96AT1)
NP40-soluble protein abundance (concentration: 0.1mM): 0.988 ± 0.068
NP40-soluble protein abundance (concentration: 0.5mM): 1.01 ± 0.035

UniProt Q96PE3 and related entries
NP40-soluble protein abundance (concentration: 0.1mM): 1.01 ± 0.043
NP40-soluble protein abundance (concentration: 0.5mM): 0.97 ± 0.029

OMA1 (UniProt Q96E52)
NP40-soluble protein abundance (concentration: 0.1mM): 0.979 ± 0.058
NP40-soluble protein abundance (concentration: 0.5mM): 0.978 ± 0.089

NARS2 (UniProt Q96I59)
NP40-soluble protein abundance (concentration: 0.1mM): 1 ± 0.039
NP40-soluble protein abundance (concentration: 0.5mM): 0.981 ± 0.028

DUS3L (UniProt Q96G46)
NP40-soluble protein abundance (concentration: 0.1mM): 0.9924 ± 0.0054
NP40-soluble protein abundance (concentration: 0.5mM): 1 ± 0.033

CHCHD1 (UniProt Q96BP2)
NP40-soluble protein abundance (concentration: 0.1mM): 1.05 ± 0.044
NP40-soluble protein abundance (concentration: 0.5mM): 1.02 ± 0.062

UniProt Q93084-2
NP40-soluble protein abundance (concentration: 0.1mM): 1.01 ± 0.019
NP40-soluble protein abundance (concentration: 0.5mM): 0.986 ± 0.015

WDR92 (UniProt Q96MX6)
NP40-soluble protein abundance (concentration: 0.1mM): 1.03 ± 0.041
NP40-soluble protein abundance (concentration: 0.5mM): 1.03 ± 0.023

LPP (UniProt Q93052)
NP40-soluble protein abundance (concentration: 0.1mM): 0.99 ± 0.028
NP40-soluble protein abundance (concentration: 0.5mM): 0.973 ± 0.047

UniProt Q96EM0
NP40-soluble protein abundance (concentration: 0.1mM): 1.03 ± 0.015
NP40-soluble protein abundance (concentration: 0.5mM): 1.03 ± 0.017

UniProt Q96F46 and related entries
NP40-soluble protein abundance (concentration: 0.1mM): 0.987 ± 0.026
NP40-soluble protein abundance (concentration: 0.5mM): 0.99 ± 0.022

UniProt Q96L91 and related entries
NP40-soluble protein abundance (concentration: 0.1mM): 1.03 ± 0.031
NP40-soluble protein abundance (concentration: 0.5mM): 1.02 ± 0.033

IPO9 (UniProt Q96P70)
NP40-soluble protein abundance (concentration: 0.1mM): 1.04 ± 0.027
NP40-soluble protein abundance (concentration: 0.5mM): 1.01 ± 0.018

UniProt Q96E29 and related entries
NP40-soluble protein abundance (concentration: 0.1mM): 0.996 ± 0.029
NP40-soluble protein abundance (concentration: 0.5mM): 0.975 ± 0.012

RNF25 (UniProt Q96BH1)
NP40-soluble protein abundance (concentration: 0.1mM): 0.972 ± 0.054
NP40-soluble protein abundance (concentration: 0.5mM): 0.992 ± 0.0026

VPS35 (UniProt Q96QK1)
NP40-soluble protein abundance (concentration: 0.1mM): 1.03 ± 0.068
NP40-soluble protein abundance (concentration: 0.5mM): 0.982 ± 0.08

ALKBH3 (UniProt Q96Q83)
NP40-soluble protein abundance (concentration: 0.1mM): 1 ± 0.016
NP40-soluble protein abundance (concentration: 0.5mM): 1.01 ± 0.03

UniProt Q96EK5
NP40-soluble protein abundance (concentration: 0.1mM): 1.03 ± 0.013
NP40-soluble protein abundance (concentration: 0.5mM): 1 ± 0.059

UniProt Q96AC1 and related entries
NP40-soluble protein abundance (concentration: 0.1mM): 1 ± 0.038
NP40-soluble protein abundance (concentration: 0.5mM): 0.983 ± 0.029

UniProt Q96QG7 and related entries
NP40-soluble protein abundance (concentration: 0.1mM): 0.99895 ± 0.00069
NP40-soluble protein abundance (concentration: 0.5mM): 0.95 ± 0.034

UniProt Q96D05 and related entries
NP40-soluble protein abundance (concentration: 0.1mM): 0.983 ± 0.01
NP40-soluble protein abundance (concentration: 0.5mM): 0.999 ± 0.016

UniProt Q96G25 and related entries
NP40-soluble protein abundance (concentration: 0.1mM): 1.01 ± 0.037
NP40-soluble protein abundance (concentration: 0.5mM): 0.993 ± 0.044

UniProt Q92989 and related entries
NP40-soluble protein abundance (concentration: 0.1mM): 1.06 ± 0.016
NP40-soluble protein abundance (concentration: 0.5mM): 1.02 ± 0.017

MARS2 (UniProt Q96GW9)
NP40-soluble protein abundance (concentration: 0.1mM): 1.01 ± 0.026
NP40-soluble protein abundance (concentration: 0.5mM): 1.01 ± 0.075

CCDC47 (UniProt Q96A33)
NP40-soluble protein abundance (concentration: 0.1mM): 1.01 ± 0.017
NP40-soluble protein abundance (concentration: 0.5mM): 1.02 ± 0.017

UniProt Q96IV0 and related entries
NP40-soluble protein abundance (concentration: 0.1mM): 0.977 ± 0.046
NP40-soluble protein abundance (concentration: 0.5mM): 0.972 ± 0.033

UniProt Q969E2 and related entries
NP40-soluble protein abundance (concentration: 0.1mM): 1.04 ± 0.042
NP40-soluble protein abundance (concentration: 0.5mM): 0.966 ± 0.0098

SMARCD1 (UniProt Q96GM5)
NP40-soluble protein abundance (concentration: 0.1mM): 1.02 ± 0.06
NP40-soluble protein abundance (concentration: 0.5mM): 1.03 ± 0.081

UniProt Q96IJ6 and related entries
NP40-soluble protein abundance (concentration: 0.1mM): 1 ± 0.021
NP40-soluble protein abundance (concentration: 0.5mM): 1.02 ± 0.018

ATAD5 (UniProt Q96QE3)
NP40-soluble protein abundance (concentration: 0.1mM): 1.014 ± 0.01
NP40-soluble protein abundance (concentration: 0.5mM): 1.008 ± 0.0076

SUCLG2 (UniProt Q96I99)
NP40-soluble protein abundance (concentration: 0.1mM): 1 ± 0.014
NP40-soluble protein abundance (concentration: 0.5mM): 1.011 ± 0.0022
